{"source": "PubChem BioAssay AID1259308 | NCATS | 2017", "aim": "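Genes whose loss raises luciferase production in HEK293 cells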 (primary screen)", "system": "human HEK293 embryonic kidney cells stably expressing firefly luciferase (HEK-CMV-Luc2-Hygro)", "reagents": "single siRNA against human genes, 0.8 pmol siRNA per well", "duration": "72 h", "measurement": "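Luciferase light (ONE-Glo) measured on one replicate plate set and viability (CellTiter-Glo) on the other, scaled to a negative control siRNA, with robust z-scores and luciferase per cell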", "reading the numbers": "total luciferase, z-score: higher = more reporter protein produced", "active means": "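An siRNA counts as active if its total luciferase robust z-score exceeds 3; genes with two or more such siRNAs out of three were retested with fresh siRNAs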", "meaning of the calls": "active = raised luciferase; inactive = no rise", "note": "In all, the deposit lists about 59,000 reagents; shown is a random part of them. Over the whole deposit, about 1,510 (2.6%) got an active call. 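Calls use total luciferase alone and ignore viability, so some active siRNAs may act by altering cell number.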 Further read-outs or replicates are left out here."}
{"gene symbol": "H2AC14 (H2A clustered histone 14)", "PubChem SID": "SID160724132", "total luciferase, z-score": -0.454, "call": "inactive"}
{"gene symbol": "H2AC14 (H2A clustered histone 14)", "PubChem SID": "SID160724133", "total luciferase, z-score": -3.37, "call": "inactive"}
{"gene symbol": "H2AC14 (H2A clustered histone 14)", "PubChem SID": "SID160724134", "total luciferase, z-score": -0.8, "call": "inactive"}
{"gene symbol": "SLC6A9", "PubChem SID": "SID160716874", "total luciferase, z-score": -0.266, "call": "inactive"}
{"gene symbol": "SLC6A9", "PubChem SID": "SID160716875", "total luciferase, z-score": -1.47, "call": "inactive"}
{"gene symbol": "SLC6A9", "PubChem SID": "SID160716876", "total luciferase, z-score": 0.286, "call": "inactive"}
{"gene symbol": "FOXI1 (forkhead box I1)", "PubChem SID": "SID160766047", "total luciferase, z-score": -1.05, "call": "inactive"}
{"gene symbol": "FOXI1 (forkhead box I1)", "PubChem SID": "SID160766058", "total luciferase, z-score": -0.11, "call": "inactive"}
{"gene symbol": "FOXI1 (forkhead box I1)", "PubChem SID": "SID160766066", "total luciferase, z-score": 0.116, "call": "inactive"}
{"gene symbol": "PAPOLA (poly(A) polymerase alpha)", "PubChem SID": "SID160729505", "total luciferase, z-score": -0.317, "call": "inactive"}
{"gene symbol": "PAPOLA (poly(A) polymerase alpha)", "PubChem SID": "SID160729506", "total luciferase, z-score": 1.81, "call": "inactive"}
{"gene symbol": "PAPOLA (poly(A) polymerase alpha)", "PubChem SID": "SID160729507", "total luciferase, z-score": -1.02, "call": "inactive"}
{"gene symbol": "COA4 (cytochrome c oxidase assembly factor 4 homolog)", "PubChem SID": "SID160740503", "total luciferase, z-score": -0.0988, "call": "inactive"}
{"gene symbol": "COA4 (cytochrome c oxidase assembly factor 4 homolog)", "PubChem SID": "SID160740504", "total luciferase, z-score": 1.16, "call": "inactive"}
{"gene symbol": "COA4 (cytochrome c oxidase assembly factor 4 homolog)", "PubChem SID": "SID160740505", "total luciferase, z-score": 1.92, "call": "inactive"}
{"gene symbol": "PARP14 (poly(ADP-ribose) polymerase family member 14)", "PubChem SID": "SID160741986", "total luciferase, z-score": 0.132, "call": "inactive"}
{"gene symbol": "PARP14 (poly(ADP-ribose) polymerase family member 14)", "PubChem SID": "SID160741987", "total luciferase, z-score": -0.735, "call": "inactive"}
{"gene symbol": "PARP14 (poly(ADP-ribose) polymerase family member 14)", "PubChem SID": "SID160741988", "total luciferase, z-score": -1.63, "call": "inactive"}
{"gene symbol": "CPN1 (carboxypeptidase N subunit 1)", "PubChem SID": "SID160730620", "total luciferase, z-score": -0.491, "call": "inactive"}
{"gene symbol": "CPN1 (carboxypeptidase N subunit 1)", "PubChem SID": "SID160747560", "total luciferase, z-score": -0.809, "call": "inactive"}
{"gene symbol": "CPN1 (carboxypeptidase N subunit 1)", "PubChem SID": "SID160747570", "total luciferase, z-score": -0.0842, "call": "inactive"}
{"gene symbol": "SLC33A1", "PubChem SID": "SID160721696", "total luciferase, z-score": 0.528, "call": "inactive"}
{"gene symbol": "SLC33A1", "PubChem SID": "SID160721697", "total luciferase, z-score": -0.372, "call": "inactive"}
{"gene symbol": "SLC33A1", "PubChem SID": "SID160721699", "total luciferase, z-score": -1.06, "call": "inactive"}
{"gene symbol": "ZFYVE1 (zinc finger FYVE-type containing 1)", "PubChem SID": "SID160741408", "total luciferase, z-score": -1.3, "call": "inactive"}
{"gene symbol": "ZFYVE1 (zinc finger FYVE-type containing 1)", "PubChem SID": "SID160741409", "total luciferase, z-score": 0.041, "call": "inactive"}
{"gene symbol": "ZFYVE1 (zinc finger FYVE-type containing 1)", "PubChem SID": "SID160741410", "total luciferase, z-score": 0.245, "call": "inactive"}
{"gene symbol": "PGLYRP4 (peptidoglycan recognition protein 4)", "PubChem SID": "SID160745626", "total luciferase, z-score": 0.12, "call": "inactive"}
{"gene symbol": "PGLYRP4 (peptidoglycan recognition protein 4)", "PubChem SID": "SID160745627", "total luciferase, z-score": 1.31, "call": "inactive"}
{"gene symbol": "PGLYRP4 (peptidoglycan recognition protein 4)", "PubChem SID": "SID160745628", "total luciferase, z-score": 0.44, "call": "inactive"}
{"gene symbol": "NTMT2 (N-terminal Xaa-Pro-Lys N-methyltransferase 2)", "PubChem SID": "SID160758797", "total luciferase, z-score": -0.105, "call": "inactive"}
{"gene symbol": "NTMT2 (N-terminal Xaa-Pro-Lys N-methyltransferase 2)", "PubChem SID": "SID160758798", "total luciferase, z-score": -0.153, "call": "inactive"}
{"gene symbol": "NTMT2 (N-terminal Xaa-Pro-Lys N-methyltransferase 2)", "PubChem SID": "SID160758799", "total luciferase, z-score": -2.1, "call": "inactive"}
{"gene symbol": "H1-10 (H1.10 linker histone)", "PubChem SID": "SID160721205", "total luciferase, z-score": 0.124, "call": "inactive"}
{"gene symbol": "H1-10 (H1.10 linker histone)", "PubChem SID": "SID160721206", "total luciferase, z-score": -0.873, "call": "inactive"}
{"gene symbol": "H1-10 (H1.10 linker histone)", "PubChem SID": "SID160721207", "total luciferase, z-score": 1.36, "call": "inactive"}
{"gene symbol": "BTLA (B and T lymphocyte associated)", "PubChem SID": "SID160759168", "total luciferase, z-score": 0.514, "call": "inactive"}
{"gene symbol": "BTLA (B and T lymphocyte associated)", "PubChem SID": "SID160759169", "total luciferase, z-score": 1.43, "call": "inactive"}
{"gene symbol": "BTLA (B and T lymphocyte associated)", "PubChem SID": "SID160759170", "total luciferase, z-score": 0.182, "call": "inactive"}
{"gene symbol": "FTHL17 (ferritin heavy chain like 17)", "PubChem SID": "SID160741515", "total luciferase, z-score": 0.529, "call": "inactive"}
{"gene symbol": "FTHL17 (ferritin heavy chain like 17)", "PubChem SID": "SID160741516", "total luciferase, z-score": 0.691, "call": "inactive"}
{"gene symbol": "FTHL17 (ferritin heavy chain like 17)", "PubChem SID": "SID160741517", "total luciferase, z-score": -0.202, "call": "inactive"}

7 successive entries from above:
{"gene symbol": "SLC6A9", "PubChem SID": "SID160716874", "total luciferase, z-score": -0.266, "call": "inactive"}
{"gene symbol": "SLC6A9", "PubChem SID": "SID160716875", "total luciferase, z-score": -1.47, "call": "inactive"}
{"gene symbol": "SLC6A9", "PubChem SID": "SID160716876", "total luciferase, z-score": 0.286, "call": "inactive"}
{"gene symbol": "FOXI1 (forkhead box I1)", "PubChem SID": "SID160766047", "total luciferase, z-score": -1.05, "call": "inactive"}
{"gene symbol": "FOXI1 (forkhead box I1)", "PubChem SID": "SID160766058", "total luciferase, z-score": -0.11, "call": "inactive"}
{"gene symbol": "FOXI1 (forkhead box I1)", "PubChem SID": "SID160766066", "total luciferase, z-score": 0.116, "call": "inactive"}
{"gene symbol": "PAPOLA (poly(A) polymerase alpha)", "PubChem SID": "SID160729505", "total luciferase, z-score": -0.317, "call": "inactive"}
